Among all 390,000 compounds or so, about 610 (0.16%) were called active. The shares of active, inactive and inconclusive entries below differ from those in the screen. The call rests on the fitted dose curve; in most records, active means well fitted inhibition curve with a large enough effect; inconclusive means small, poorly fitted or top-dose-only effect, or effect the other way, or another doubt; inactive means no such curve, though single readings can be large or run the other way. Potencies beside an inconclusive call are fits to weak or partial responses and may not hold up.
Experiment: Nrf2 qHTS screen for inhibitors: counterscreen for cytotoxicity
Details: A549 ARE-Fluc cells, CellTiter-Fluor viability, 18-24 h; activity change, negative = cytotoxicity: at 46 µM (top of the series)
Summary of the method: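 A549 ARE_Fluc cells in 5% FBS OPTI-MEM were exposed to compounds in concentration-response for 18-24 h at 37 deg C. Viability was read by CellTiter-Fluor fluorescence (Ex 405/Em 525) after 30 min, before the luciferase read.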
On the % scale 0 is the no-effect control and ±100 the full control effect; potency means the concentration at half of the fitted maximal effect.

| SMILES | Potency | activity change, negative = cytotoxicity |
| --- | --- | --- |
| COc1ccc(NC(C)=O)cc1NC(=O)CN1CCN(C2c3ccccc3-c3ccccc32)CC1 | inconclusive: 32.6 µM [falling, partial curve, poor fit] |  |
| CCc1ccccc1N(C)C(=O)c1cn(CC(C)C)c(=O)c2cc(OC)c(OC)cc12 |  | inactive: 0.306% |
| COc1cc(C(=O)NCC(c2ccco2)N2CCCC2)ccc1OCc1ccc(Cl)cc1Cl (configuration not stated) | inconclusive: 23.1 µM [falling, partial curve, poor fit] |  |
| CCOc1ccccc1-n1ccnc(NCc2ccc(F)cc2)c1=O |  | inactive: 7.52% |
| CC1CCCN(S(=O)(=O)c2ccc(C(=O)Nc3nnc(-c4ccccc4Cl)o3)cc2)C1 (configuration not stated) |  | inactive: -3.85% |
| OC[C@@H]1[C@@H](c2ccc(Cl)cc2)C(c2cccc(Cl)c2)=NN1c1ccccc1 | inconclusive: 23.1 µM [activator, single point] |  |
| O=C1N[C@H](Cc2ccccc2)COC(=O)[C@H](Cc2ccc(F)cc2)CC/C=C/C[C@@H]1CC(=O)N(CCO)Cc1ccccc1 | inconclusive: 29.1 µM [falling, partial curve, poor fit] |  |
| CCCN(CCC)C(=O)/C=C/c1cccc([N+](=O)[O-])c1 |  | inactive: 11.7% |
| O=S(=O)(c1ccc(OC(F)(F)F)cc1)N1CCC(O)(c2cccc(C(F)(F)F)c2)CC1 | inconclusive: 29.1 µM [falling, single point] |  |
| COc1cc(N2C(=O)C=CC2=O)c(OC)cc1Cl | inconclusive: 29.1 µM [falling, single point] |  |
| CS(=O)(=O)Nc1ccc(C(=O)CSc2nnc(C3CC3)n2C2CC2)cc1 |  | inactive: 1.65% |
| O=C(CSCC(=O)Nc1cccc2ccccc12)Nc1cccc2ccccc12 | inconclusive: 18.4 µM [activator, partial curve, poor fit] |  |
| CN1CCN(C2Cc3ccc(Cl)cc3Sc3ccc(F)cc32)CC1 (configuration not stated) | inconclusive: 23.1 µM [falling, single point] |  |
| CCn1c(SCc2ccccc2)nnc1-c1nonc1NC(C)=O |  | inactive: 10.1% |
| CCn1c(COc2ccc(=O)n(-c3ccccc3)n2)nnc1SCc1cccc(OC)c1 |  | inactive: -12.7% |
| Cc1nc2ccccc2c(=O)n1NC(=O)c1c(O)c2c(n(CC(C)C)c1=O)CCCC2 | inconclusive: 29.1 µM [falling, single point] |  |
| Cc1cc2ccccn2c1C(=O)c1ccc(C#N)cc1 | inconclusive: 20.6 µM [falling, partial curve, poor fit] |  |
| Cc1ccc(SCC2(O)CCN(S(=O)(=O)c3ccc(Cl)cc3)CC2)cc1 | inconclusive: 29.1 µM [falling, single point] |  |
| Nc1nnc(SCC(=O)OCC(=O)Nc2ccccc2F)s1 | inconclusive: 32.6 µM [activator, partial curve, poor fit] |  |
| O=C(NCCc1nnc2ccc(NCc3ccc(F)cc3)nn12)c1ccccc1 |  | inactive: 0.727% |
| Cc1ccc(/C=C2/C(=O)N=C(N)N2C)s1 | inconclusive: 6.51 µM [falling, single point] |  |
| CCn1cc(C(=O)N2CCN(c3ccc(OC)cc3)CC2)c(=O)c2cc(S(=O)(=O)N3CCCCC3)ccc21 | inconclusive: 4.11 µM [activator, full curve] |  |
| O=C(COc1ccc(S(=O)(=O)NC2CCCCC2)cc1)N1CCN(c2cccc(Cl)c2)CC1 | inconclusive: 23.1 µM [falling, partial curve, poor fit] |  |

Single values from the entries so far:
Value for CCn1c(COc2ccc(=O)n(-c3ccccc3)n2)nnc1SCc1cccc(OC)c1 under activity change, negative = cytotoxicity: inactive: -12.7%
Value for Cc1nc2ccccc2c(=O)n1NC(=O)c1c(O)c2c(n(CC(C)C)c1=O)CCCC2 under Potency: inconclusive: 29.1 µM [falling, single point]
Value for O=S(=O)(c1ccc(OC(F)(F)F)cc1)N1CCC(O)(c2cccc(C(F)(F)F)c2)CC1 under Potency: inconclusive: 29.1 µM [falling, single point]

(listing goes on)

| SMILES | Potency | activity change, negative = cytotoxicity |
| --- | --- | --- |
| CN1/C(=C\C(=O)COC(=O)c2ccco2)C(C)(C)c2ccccc21 | inconclusive: 29.1 µM [falling, partial curve, poor fit] |  |
| CC(C)C(=O)N1CCN(c2ccc(NC(=O)c3ccc([N+](=O)[O-])o3)cc2Cl)CC1 | inconclusive: 23.1 µM [falling, partial curve, poor fit] |  |
| CN=C1C=C/C(=N/N=c2\ccn(O)cc2C)C=C1C | active: 16.4 µM |  |
| COc1cc2[nH]c(=O)n(CCC(=O)N3CCN(c4cc(Cl)ccc4C)CC3)c(=O)c2cc1OC | inconclusive: 29.1 µM [falling, single point] |  |
| COc1ccc2nc(N3C(=O)C(O)=C(C(=O)c4ccco4)C3c3ccc(C)o3)sc2c1 (configuration not stated) | inconclusive: 16.4 µM [falling, partial curve] |  |
| Cc1cccc(NC(=O)c2ccc3c(Cl)c4c(nc3c2)CCCC4)n1 | inconclusive: 32.6 µM [activator, partial curve, poor fit] |  |
| Cc1ccc(NC(=O)CSc2ccccc2NC(=O)c2ccccc2Cl)cc1Cl | inconclusive: 32.6 µM [falling, partial curve, poor fit] |  |
| CCN1/C(=C/c2ccc3cc(C)ccc3[n+]2CC)Sc2cc(C)c(C)cc21 | inconclusive: 6.51 µM [falling, partial curve] |  |
| Cc1ccc2ccccc2c1CSc1nc(N)nc2c1ncn2CC(C)C | inconclusive: 18.4 µM [falling, single point] |  |
| Cc1cc(-c2onc3ccc(Cl)cc23)ccc1O |  | inactive: -6.34% |
| COc1cc(C(=O)N(Cc2ccc(C(C)C)cc2)C2CCS(=O)(=O)C2)cc(OC)c1OC (configuration not stated) | inconclusive: 18.4 µM [falling, partial curve, poor fit] |  |
| CCC(NC(=O)c1cccc(Cn2nc(C)c([N+](=O)[O-])c2C)c1)c1ccc(C(C)C)cc1 (configuration not stated) |  | inactive: -0.986% |
| COC(=O)N/N=C/c1cc(Cl)cc(Cl)c1OCc1ccccc1F | inconclusive: 29.1 µM [falling, single point] |  |
| COc1ccccc1C(=O)C1CCCN(C(=O)c2ccco2)C1 (configuration not stated) | inconclusive: 16.4 µM [activator, partial curve] |  |
| COc1ccc(OCC(=O)N2CCN(c3cccc(C(F)(F)F)c3)CC2)cc1 |  | inactive: 2.54% |
| COc1ccccc1Nc1nc2c(S(=O)(=O)c3ccc(C(C)C)cc3)nnn2c2ccsc12 |  | inactive: 4.76% |
| COC(=O)c1c(NC(=O)c2ccc([N+](=O)[O-])o2)sc2c1CCN(C(C)C)C2 | inconclusive: 20.6 µM [falling, single point] |  |
| O=C(CC(c1cccs1)N1Cc2ccccc2C1=O)Nc1ccc(Cl)cc1 (configuration not stated) |  | inactive: 11.7% |
| Cc1ccc(S(=O)(=O)N(CC(=O)N2CCC(C)CC2)Cc2ccccc2F)cc1 |  | inactive: -19.7% |
| COc1cc(-c2cc(C(=O)Nc3ccc(S(=O)(=O)NCc4ccco4)cc3)c3ccccc3n2)cc(OC)c1OC | inconclusive: 23.1 µM [falling, partial curve, poor fit] |  |
| Cc1ccc(NC(=O)CCc2nc3cccnc3n2-c2ccccc2)cc1 |  | inactive: 1.04% |
| Cc1ccc(-n2c3c(cc(C(=O)N4CCN(C)CC4)c2=O)C(=O)CC(C)(C)C3)cc1 | inconclusive: 5.17 µM [activator, full curve, poor fit] |  |
| O=C(Nc1ccc(S(=O)(=O)C(F)F)cc1)c1cccc(S(=O)(=O)N2CCOCC2)c1 | inconclusive: 32.6 µM [falling, single point] |  |

| SMILES | Potency | activity change, negative = cytotoxicity |
| --- | --- | --- |
| Cc1ncc([N+](=O)[O-])n1CCOC(=O)Nc1ccc([N+](=O)[O-])cc1 |  | inactive: -4.84% |
| CC(=O)c1cc2c(cc1N(C(=O)c1ccco1)C(C(=O)NC1CCCC1)c1ccccc1F)OCO2 (configuration not stated) |  | inactive: -9.1% |
| O=C(NC1CCN(Cc2ccc(Cl)cc2)CC1)c1cn(-c2ccccc2)nc1-c1cccnc1 | inconclusive: 29.1 µM [falling, single point] |  |
| Cc1ccc(C)c(CNC(=O)C2CCCCN2S(=O)(=O)c2ccc(F)cc2)c1 (configuration not stated) | inconclusive: 2.06 µM [activator, partial curve, poor fit] |  |
| O=[N+]([O-])c1ccc(N/N=C/c2sc(N3CCOCC3)nc2-c2ccccc2)c(S(=O)(=O)Nc2ccccc2Cl)c1 | active: 9.2 µM |  |
| O=C1C=CC(=C(c2ccc(O)cc2)c2ccc(O)cc2)C=C1 | active: 23.1 µM |  |
| Cc1cccc(CC(Cc2nc3ccccc3[nH]2)c2nc3ccccc3[nH]2)c1 (configuration not stated) | inconclusive: 23.1 µM [falling, single point] |  |
| O=C(CN1CCN(c2ccc(Cl)cc2)CC1)Nc1ccc(F)cc1 | inconclusive: 23.1 µM [falling, partial curve, poor fit] |  |
| O=C(CN1CCN(c2nc(-c3ccccc3)cs2)CC1)Nc1ccc2c(c1)OCO2 | inconclusive: 32.6 µM [falling, partial curve, poor fit] |  |
| C/C(=N\NC(=O)c1cccc(Cl)c1)C1C(=O)c2ccccc2C1=O | inconclusive: 18.4 µM [falling, single point] |  |
| CCOC(=O)c1sc(S(C)(=O)=O)c2c1CC(C)(C)C/C2=N/O |  | inactive: -0.177% |
| Cc1c(C(=O)N2CCOCC2)oc2c1-c1nn(CC(=O)NCc3ccccc3)cc1CC2 |  | inactive: 4.09% |
| O=C(c1ccccc1)N1CCC(c2nc(-c3ccc(S(=O)(=O)NCC4CCCO4)cc3)no2)CC1 (configuration not stated) |  | inactive: -13.2% |
| CC(Oc1ccc(Cl)cc1Cl)C(=O)Nc1ccc2oc(-c3ccncc3)nc2c1 (configuration not stated) | inconclusive: 4.11 µM [falling, single point] |  |
| CN1CCN(CC(=O)Nc2ccccc2Sc2ccccc2)CC1 |  | inactive: -6.96% |
| Cc1ccc(NC(=O)Cc2nnc(SCC(=O)c3ccc(Br)cc3)n2C)cc1 | inconclusive: 20.6 µM [falling, partial curve, poor fit] |  |
| CCn1cc(S(=O)(=O)c2ccccc2)c(=O)c2cc(F)c(N3CCCCCC3)cc21 | inconclusive: 29.1 µM [falling, single point] |  |
| COc1ccc(-c2nc3c(C#N)c[nH]n3c2NC2CCCCC2)cc1 |  | inactive: -1.15% |
| COc1ccc(CC(=O)Nc2ccc(C(N)=O)cc2)cc1 |  | inactive: 2.42% |
| CCOC(=O)Cc1csc(CC(N)=O)n1 | inconclusive: 7.31 µM [activator, partial curve, poor fit] |  |
| CCN(CC)CCN(Cc1cc2ccc(C)c(C)c2[nH]c1=O)C(=S)NCc1ccco1 | inconclusive: 29.1 µM [falling, single point] |  |
